Measured values published in PubChem BioAssay AID485298 (National Center for Advancing Translational Sciences (NCATS), 2010).
The whole screen tested about 320,000 compounds, of which about 740 (0.23%) were called active. Inconclusive results, whose numbers are uncertain, are shown with a selection of clear calls. Calls come from the whole dose curve; as a rule, active = well fitted activation curve with a large enough effect; inconclusive = small, poorly fitted or top-dose-only effect; inactive = no such curve, though single readings can be large or run the other way. Where the call is inconclusive, the potency comes from a doubtful curve fit.

Assay: qHTS Assay for Small Molecule Inhibitors of Mitochondrial Division or Activators of Mitochondrial Fusion; note: nearly all actives have a fitted effect of over 45% in size
Conditions: S. cerevisiae fusion-defective mutant growth rescue, CellTiterGlo 48 h; series mostly up to 46.1 µM
Outline: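 Growth-rescue viability read-out: after 48 h at the non-permissive 37C in glycerol/ethanol YPEG, yeast mitochondrial fusion mutants are measured by CellTiterGlo luminescence; compounds (23 nl pinned per well) restoring growth score as division inhibitors or fusion activators.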
Potency is the fitted concentration of half-maximal effect.

| Structure (SMILES) | Potency |
| --- | --- |
| O=S(=O)(c1ccccc1)n1ccc2ccccc21 | inactive |
| COC(=O)c1cc(-c2ccc(OC)c(OC)c2)c2c(=O)[nH]c(=O)n(C)c2n1 | inconclusive: 1.12 µM [activator, partial curve] |
| Cc1ccccc1S(=O)(=O)Nc1ncc(C(F)(F)F)cc1Cl | inconclusive: 17.8 µM [activator, partial curve] |
| O=C(O)c1ccc(NC(=S)NC(=O)c2ccc(-c3ccccc3)cc2)cc1 | inconclusive: 11.2 µM [activator, partial curve] |
| Cc1cccc(NC(=O)c2sc3nc(-c4ccccc4)cn3c2C)n1 | inconclusive: 7.94 µM [activator, partial curve] |
| O=C(Nc1ccc2oc(-c3ccccc3F)nc2c1)c1ccc2c(c1)OCCO2 | inactive |
| Cc1ccc2c(c1)[C@H]1[C@H](CO2)[C@H](c2ccccc2)[C@]2(C)C(=O)Nc3cc(Cl)ccc3C(=O)N12 | inconclusive: 3.98 µM [activator, full curve] |
| Cc1c(-c2ccccc2)c(=O)oc2cc(O)ccc12 | inconclusive: 35.5 µM [activator, partial curve] |
| CCOC(=O)c1sc(NC(=O)CSc2n[nH]c(-c3ccccc3)n2)c(C#N)c1C | inconclusive: 35.5 µM [activator, single point] |
| Clc1ccc(-c2nnc(-c3ccco3)o2)cc1 | inactive |
| O=C(/C=C/c1ccco1)c1ccc(NC(=O)C23CC4CC(CC(C4)C2)C3)cc1 | inconclusive: 17.8 µM [activator, partial curve] |
| CNS(=O)(=O)c1cccc(C(=O)OCc2cc(Cl)cc3c2OCOC3)c1 | inactive |
| COc1ccc(N2CCC(CNC(=S)Nc3ccc(C)cc3C)C2)cc1 (centres undefined) | inconclusive: 35.5 µM [activator, single point] |
| O=[N+]([O-])c1cc(-n2cnnn2)ccc1N1CCC(Cc2ccccc2)CC1 | inactive |
| COc1ccccc1CNC(=O)C1CCCN(S(=O)(=O)c2ccc3c(c2)CC(C)N3C(C)=O)C1 (centres undefined) | inconclusive: 2.82 µM [activator, partial curve] |
| O=C(N/N=C/C(Cl)=C/c1ccccc1)c1cnccn1 | inactive |
| COc1ccc(Cc2nnc(NC(=O)Cc3cccs3)s2)cc1 | inconclusive: 5.62 µM [activator, single point] |
| Cc1ccc(NC(=O)c2sc3ncnc(N4CCN(c5ccccn5)CC4)c3c2C)c(C)c1 | active: 12.6 µM |
| Cc1cccc(N=C2NC(=O)/C(=C/c3cn(C)c4ccccc34)S2)c1 | inconclusive: 28.2 µM [activator, single point] |

Reformatted: entries from further up
Structure (SMILES)	Potency
Cc1ccc2c(c1)[C@H]1[C@H](CO2)[C@H](c2ccccc2)[C@]2(C)C(=O)Nc3cc(Cl)ccc3C(=O)N12	inconclusive: 3.98 µM [activator, full curve]
Cc1c(-c2ccccc2)c(=O)oc2cc(O)ccc12	inconclusive: 35.5 µM [activator, partial curve]
CCOC(=O)c1sc(NC(=O)CSc2n[nH]c(-c3ccccc3)n2)c(C#N)c1C	inconclusive: 35.5 µM [activator, single point]
